The values that follow come from publication PMC8767196.

Chains of the proteins cited; added tags and fusions are not shown.
UniProt Q8IXI2: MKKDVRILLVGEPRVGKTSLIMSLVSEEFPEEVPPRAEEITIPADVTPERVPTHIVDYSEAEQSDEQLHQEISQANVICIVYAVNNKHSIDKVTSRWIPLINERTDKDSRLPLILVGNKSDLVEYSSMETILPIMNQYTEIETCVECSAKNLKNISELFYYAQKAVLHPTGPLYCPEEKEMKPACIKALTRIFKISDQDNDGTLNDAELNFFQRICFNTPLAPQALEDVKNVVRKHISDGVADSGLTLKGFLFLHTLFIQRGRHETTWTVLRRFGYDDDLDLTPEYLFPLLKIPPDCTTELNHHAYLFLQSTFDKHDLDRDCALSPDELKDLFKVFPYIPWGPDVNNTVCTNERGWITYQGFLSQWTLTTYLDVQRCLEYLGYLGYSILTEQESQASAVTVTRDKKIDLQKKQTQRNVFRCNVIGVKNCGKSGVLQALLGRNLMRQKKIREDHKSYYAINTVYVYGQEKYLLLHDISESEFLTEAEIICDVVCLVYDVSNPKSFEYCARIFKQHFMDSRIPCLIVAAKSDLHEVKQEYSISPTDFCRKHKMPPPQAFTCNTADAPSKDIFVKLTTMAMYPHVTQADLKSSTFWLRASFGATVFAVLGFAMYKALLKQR
UniProt Q9BXM7: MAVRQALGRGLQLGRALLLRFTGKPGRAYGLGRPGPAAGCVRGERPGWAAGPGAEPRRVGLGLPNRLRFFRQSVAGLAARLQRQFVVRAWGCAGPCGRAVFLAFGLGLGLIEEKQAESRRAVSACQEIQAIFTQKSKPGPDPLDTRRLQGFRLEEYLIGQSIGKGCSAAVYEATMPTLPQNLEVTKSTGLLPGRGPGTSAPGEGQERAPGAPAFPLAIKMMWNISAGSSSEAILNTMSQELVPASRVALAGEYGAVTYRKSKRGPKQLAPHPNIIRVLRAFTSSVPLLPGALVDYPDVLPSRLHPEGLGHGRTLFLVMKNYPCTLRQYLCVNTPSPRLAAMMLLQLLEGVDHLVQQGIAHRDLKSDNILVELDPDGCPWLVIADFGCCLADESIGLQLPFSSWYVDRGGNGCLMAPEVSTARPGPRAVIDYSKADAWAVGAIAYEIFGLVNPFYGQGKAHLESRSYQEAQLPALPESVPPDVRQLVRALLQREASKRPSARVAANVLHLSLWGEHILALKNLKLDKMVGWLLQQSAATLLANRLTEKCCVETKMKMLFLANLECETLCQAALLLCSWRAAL

For test [1], the target named is T1, Mitofusin 2 (human (endogenous in U2OS)) (UniProt O95140).
T1 sequence: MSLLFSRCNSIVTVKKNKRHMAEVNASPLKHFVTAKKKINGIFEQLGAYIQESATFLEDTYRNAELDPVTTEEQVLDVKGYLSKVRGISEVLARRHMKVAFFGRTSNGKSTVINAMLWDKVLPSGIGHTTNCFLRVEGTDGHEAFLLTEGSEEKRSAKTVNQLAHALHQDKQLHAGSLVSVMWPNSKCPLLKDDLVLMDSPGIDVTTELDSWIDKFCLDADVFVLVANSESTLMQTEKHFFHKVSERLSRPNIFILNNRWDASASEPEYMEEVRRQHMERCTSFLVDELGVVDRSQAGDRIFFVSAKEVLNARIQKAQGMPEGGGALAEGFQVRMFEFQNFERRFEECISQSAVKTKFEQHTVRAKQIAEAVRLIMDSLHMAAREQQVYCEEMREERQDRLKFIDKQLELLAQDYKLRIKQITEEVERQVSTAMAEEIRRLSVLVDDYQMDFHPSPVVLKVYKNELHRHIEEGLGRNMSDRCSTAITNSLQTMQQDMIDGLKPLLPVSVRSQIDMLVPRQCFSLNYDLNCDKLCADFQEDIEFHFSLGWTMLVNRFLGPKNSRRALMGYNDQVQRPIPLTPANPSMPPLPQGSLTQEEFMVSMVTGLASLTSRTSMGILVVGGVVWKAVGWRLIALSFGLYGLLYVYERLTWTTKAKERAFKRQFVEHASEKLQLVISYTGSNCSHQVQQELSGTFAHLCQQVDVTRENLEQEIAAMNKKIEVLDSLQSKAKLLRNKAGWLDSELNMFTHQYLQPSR
The test is described as follows: proximity ligation; Duolink in situ PLA in fixed, permeabilised U2OS cells (WT or PINK1 KO) transfected with PINK1-3HA, 10 uM CCCP for 3 h; mouse anti-HA with rabbit anti-Mfn2, anti-Mfn1, anti-Miro1 or anti-VDAC; PLA spots per cell counted within the ER region of interest.

The target in test [2] is Miro1 (human (endogenous in U2OS)) (UniProt Q8IXI2). The description is as above.
For test [3], the target named is T2, Mitofusin-1 (human (endogenous in U2OS)) (UniProt Q8IWA4).
T2 sequence: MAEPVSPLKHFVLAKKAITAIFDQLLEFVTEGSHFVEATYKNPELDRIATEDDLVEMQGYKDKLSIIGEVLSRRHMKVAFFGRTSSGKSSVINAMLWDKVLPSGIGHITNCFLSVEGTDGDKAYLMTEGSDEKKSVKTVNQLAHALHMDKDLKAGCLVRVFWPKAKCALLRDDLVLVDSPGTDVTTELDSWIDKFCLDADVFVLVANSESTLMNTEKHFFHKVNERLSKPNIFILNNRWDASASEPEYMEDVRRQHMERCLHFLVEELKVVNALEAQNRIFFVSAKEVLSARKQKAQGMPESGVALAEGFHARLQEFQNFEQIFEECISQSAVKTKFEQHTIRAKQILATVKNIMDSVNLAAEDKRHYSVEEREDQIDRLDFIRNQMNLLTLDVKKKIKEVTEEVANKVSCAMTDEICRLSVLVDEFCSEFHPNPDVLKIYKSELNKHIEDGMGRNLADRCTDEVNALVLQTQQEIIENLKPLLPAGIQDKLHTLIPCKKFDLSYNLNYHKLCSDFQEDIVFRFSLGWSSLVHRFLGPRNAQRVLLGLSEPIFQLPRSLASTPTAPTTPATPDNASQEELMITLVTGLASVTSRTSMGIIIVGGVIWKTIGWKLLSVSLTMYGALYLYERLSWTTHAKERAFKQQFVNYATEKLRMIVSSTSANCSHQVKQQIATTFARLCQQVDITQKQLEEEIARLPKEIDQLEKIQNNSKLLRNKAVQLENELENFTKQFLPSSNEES
The description is as above.

The target in test [4] is T1, Mitofusin 2 (human (endogenous in U2OS)). The test is described as follows: condition: only without CCCP (no mitochondrial depolarization); proximity ligation; Duolink in situ PLA in fixed, permeabilised U2OS cells transfected with PINK1-3HA, without CCCP (DMSO); mouse anti-HA with rabbit anti-Mfn2.

No constants are given. Whether binding was seen depends on the method and setting. Binding seen in cells or lysates may run through a third protein. Some results given as binding are weak or reduced against the parent protein; the word gives no strength. For some of these results: Where a sequence is shown, tags or fusion partners need not be part of it.

Turning to “PINK1(WT)-3HA (from UniProt Q9BXM7 1-581) (enzyme)”, the binding result is recorded as “binds” in test [1], “no binding” in test [2], “no binding” in test [3] and “no binding” in test [4].
